Drug key:
OSU-03012: NCC(=O)Nc1ccc(-n2nc(C(F)(F)F)cc2-c2ccc3c(ccc4ccccc43)c2)cc1 at 5 µM
NVP-TAE684: COc1cc(N2CCC(N3CCN(C)CC3)CC2)ccc1Nc1ncc(Cl)c(Nc2ccccc2S(=O)(=O)C(C)C)n1 at 0.4 µM
nilutamide: CC1(C)NC(=O)N(c2ccc([N+](=O)[O-])c(C(F)(F)F)c2)C1=O at 5 µM
sorafenib: CNC(=O)c1cc(Oc2ccc(NC(=O)Nc3ccc(Cl)c(C(F)(F)F)c3)cc2)ccn1 at 2 µM
XAV939: Oc1nc(-c2ccc(C(F)(F)F)cc2)nc2c1CSCC2 at 10 µM
PF-04217903: OCCn1cc(-c2cnc3nnn(Cc4ccc5ncccc5c4)c3n2)cn1 at 5 µM
enzastaurin: Cn1cc(C2=C(c3cn(C4CCN(Cc5ccccn5)CC4)c4ccccc34)C(=O)NC2=O)c2ccccc21 at 4 µM
vatalanib: Clc1ccc(Nc2nnc(Cc3ccncc3)c3ccccc23)cc1 at 10 µM

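Human melanoma cells were exposed to a pair of drugs for 72 h in 1,536-well plates and read by automated microscopy after fixing and staining. Values are the number of DAPI-stained nuclei as a percentage of the DMSO control: 100 is no effect, lower means fewer cells. Every drug was used at one fixed concentration, the higher of two screened. The file gives one value for each pair and line, without errors, so small differences may be noise.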 Only some of the drugs and lines screened are listed, without regard to their results.

Combination,WM3619
vatalanib + enzastaurin,52.6
nilutamide + OSU-03012,116
vatalanib + NVP-TAE684,73.2
PF-04217903 + nilutamide,106
PF-04217903 + XAV939,96.9
sorafenib + OSU-03012,47.2
OSU-03012 + NVP-TAE684,81.1
XAV939 + sorafenib,91.3
nilutamide + NVP-TAE684,84.6
enzastaurin + PF-04217903,138
enzastaurin + sorafenib,97.1
vatalanib + OSU-03012,2.1
sorafenib + vatalanib,75.1
sorafenib + NVP-TAE684,83.1
XAV939 + nilutamide,91.3
enzastaurin + XAV939,114
nilutamide + vatalanib,70.3
OSU-03012 + PF-04217903,49.4
PF-04217903 + NVP-TAE684,73.0
XAV939 + vatalanib,79.2
enzastaurin + NVP-TAE684,84.4
enzastaurin + OSU-03012,10.7

The last 2 entries again:

{"combination": "enzastaurin + NVP-TAE684", "WM3619": 84.4}
{"combination": "enzastaurin + OSU-03012", "WM3619": 10.7}

Data from the primary screen of doi:10.1371/journal.pone.0140310, rounded.